According to PubChem BioAssay (NCATS):
Listed are the inconclusive results; actives and inactives stand elsewhere. Unless noted, calls follow the shape of the dose curve; as a rule, active = well fitted curve in the direction sought with a large enough effect; inconclusive = small, poorly fitted or top-dose-only effect, or another doubt; inactive = no such curve, though single readings can be large; an effect the other way counts as inactive or inconclusive.

Amino acid sequences for entries named in this document (tags omitted).
UniProt P10635, whole entry: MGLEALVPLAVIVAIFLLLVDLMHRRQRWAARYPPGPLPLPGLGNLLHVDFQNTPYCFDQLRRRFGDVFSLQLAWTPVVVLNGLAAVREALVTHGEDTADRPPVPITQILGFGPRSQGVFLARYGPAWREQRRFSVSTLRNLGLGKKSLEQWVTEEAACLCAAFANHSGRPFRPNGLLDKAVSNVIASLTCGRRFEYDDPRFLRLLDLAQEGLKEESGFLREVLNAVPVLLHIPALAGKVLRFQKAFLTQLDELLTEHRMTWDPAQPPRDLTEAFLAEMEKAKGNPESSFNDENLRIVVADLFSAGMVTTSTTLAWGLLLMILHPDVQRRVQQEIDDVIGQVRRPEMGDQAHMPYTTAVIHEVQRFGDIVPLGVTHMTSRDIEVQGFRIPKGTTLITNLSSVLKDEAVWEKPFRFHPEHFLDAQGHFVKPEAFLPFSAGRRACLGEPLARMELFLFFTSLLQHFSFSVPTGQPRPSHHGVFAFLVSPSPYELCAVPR
UniProt P10275, whole entry: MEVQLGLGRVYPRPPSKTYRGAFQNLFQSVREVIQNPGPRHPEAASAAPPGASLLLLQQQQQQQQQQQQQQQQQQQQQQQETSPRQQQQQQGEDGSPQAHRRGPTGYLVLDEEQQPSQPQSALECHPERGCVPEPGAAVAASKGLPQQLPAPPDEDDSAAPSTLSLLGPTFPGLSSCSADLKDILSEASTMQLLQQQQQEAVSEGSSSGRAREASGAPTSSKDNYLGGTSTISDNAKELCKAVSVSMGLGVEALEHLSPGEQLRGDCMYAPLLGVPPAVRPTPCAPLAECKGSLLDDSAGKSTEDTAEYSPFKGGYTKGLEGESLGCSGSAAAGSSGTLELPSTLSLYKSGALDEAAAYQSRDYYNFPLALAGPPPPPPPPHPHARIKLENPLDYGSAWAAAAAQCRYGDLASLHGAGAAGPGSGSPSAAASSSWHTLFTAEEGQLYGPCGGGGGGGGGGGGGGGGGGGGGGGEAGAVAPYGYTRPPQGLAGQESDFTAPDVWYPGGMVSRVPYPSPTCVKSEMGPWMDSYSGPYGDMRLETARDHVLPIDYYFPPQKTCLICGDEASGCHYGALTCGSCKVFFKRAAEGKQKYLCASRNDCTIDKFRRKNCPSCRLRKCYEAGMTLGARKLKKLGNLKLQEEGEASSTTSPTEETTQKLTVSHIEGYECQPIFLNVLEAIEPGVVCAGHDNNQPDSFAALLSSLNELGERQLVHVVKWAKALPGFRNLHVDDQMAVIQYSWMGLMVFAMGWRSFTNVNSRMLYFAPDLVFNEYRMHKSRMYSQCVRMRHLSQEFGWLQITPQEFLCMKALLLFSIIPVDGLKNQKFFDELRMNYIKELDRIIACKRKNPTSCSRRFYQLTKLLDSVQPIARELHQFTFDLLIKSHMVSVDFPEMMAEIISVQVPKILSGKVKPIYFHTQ

Legend:
[1] = qHTS assay for small molecule agonists of the antioxidant response element (ARE) signaling pathway (AID 651741; active = well fitted activation curve with a large enough effect in the signal ratio; inconclusive = small, poorly fitted or top-dose-only effect, or effect the other way, or a change in a side signal; the % refers to the signal ratio; also: potency is read from the fitted curve at half-maximal effect; as to activation: % of control where 0% means no effect); settings: HepG2 ARE-bla reporter, beta-lactamase FRET ratio, 16 h; activation: at 96 µM (top of the series)
Method in brief: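 Beta-lactamase reporter expression driven by the antioxidant response element in HepG2 cells was detected by fluorescence with LiveBLAzer B/G FRET substrate (2 h, room temperature) following 16 h compound treatment at 37 C.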

[2] = Drug repurposing screens with cells derived from glioblastoma tumor samples (AID 1345199); settings: GBM patient neurospheres viability, ATP luminescence, 48 h; tumour line A; also: potency is read from the fitted curve at half-maximal effect; nearly all actives have a fitted effect of over 40% in size
Method in brief: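 Primary testing used CD133+ neurospheres from four GBM patients, seven concentrations, 48 h exposure and ATP-based viability; confirmation added three slower-growing patient lines.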

7G8 = test: qHTS profiling for inhibitors of Plasmodium falciparum proliferation (AID 504749); also: potency is read from the fitted curve at half-maximal effect; nearly all actives have a fitted effect of over 60% in size; settings: P. falciparum in erythrocytes, SYBR Green DNA, 72 h
Method in brief: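 Fluorescence of SYBR Green-bound parasite DNA, read at 485/535 nm, served as the growth measure. Infected erythrocytes were cultured with compound 72 h; artemisinin (0.29 uM) and DMSO wells defined the normalization range.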

[3] = tested on: Zika virus NS2B-NS3 protease (unlinked complex); test: Primary screen GU Rhodamine qHTS for Zika virus inhibitors: Unlinked NS2B-NS3 protease assay (AID 1347159); settings: Recombinant ZIKV NS2B-NS3 protease, Rhodamine110 substrate fluorescence; also: potency is read from the fitted curve at half-maximal effect; nearly all actives have a fitted effect of over 60% in size
Method in brief: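 Enzyme 25 nM in Tris-HCl pH 8.0 + 0.01% Tween 20; compounds up to 114 microM, 15 min RT dark; + Rhod110 substrate 1.5 microM; read t0 and 15 min; delta fluorescence → % inhibition → 4-parameter Hill fit.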

[4] = target: Cytochrome P450 2D6 (Homo sapiens) (UniProt P10635); test: Cytochrome P450 family 2 subfamily D member 6 (CYP2D6) small molecule antagonists: luciferase biochemical (cell-free) qHTS assay (AID 1645840; active = well fitted curve in the direction sought with a large enough effect in the repeat runs; inconclusive = weak or mixed curves; inactive = no such curve, though single readings can be large; an effect the other way counts as inactive or inconclusive; also: potency is read from the fitted curve at half-maximal effect; nearly all actives have a fitted effect of over 55% in size); settings: P450-Glo CYP2D6 enzyme, luciferin luminescence, 1 h
Method in brief: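 P450-Glo CYP2D6 system: proluciferin substrate converted by enzyme to luciferin, read by luminescence proportional to activity. Enzyme-substrate mix with compound 10 min at room temperature, then NADPH regeneration 1 h before detection reagent.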

[5] = Primary qHTS for inhibitors of nuclear receptor binding SET domain protein 2 (NSD2) in an isogenic RCH-ACV NSD2 p.E1099K mutant (9B) (AID 1645876); settings: RCH-ACV NSD2 E1099K (9B) viability, CellTiter-Glo, 72 h; also: potency is read from the fitted curve at half-maximal effect; nearly all actives have a fitted effect of over 70% in size
[6] = Primary qHTS for inhibitors of nuclear receptor binding SET domain protein 2 (NSD2) in an RCH-ACV wild type WT cells (2C) (AID 1645877); settings: RCH-ACV (leukaemia line) NSD2 WT (2C) viability, CellTiter-Glo, 72 h; also: potency is read from the fitted curve at half-maximal effect; nearly all actives have a fitted effect of over 70% in size
[7] = Primary fluorescence-based thiol-reactive (MSTI) qHTS assay for identification of artifact compounds. (AID 1845221); settings: MSTI thiol-reactivity probe, 1 h; also: potency is read from the fitted curve at half-maximal effect; nearly all actives have a fitted effect of over 65% in size
Method in brief: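 Curve-fitted percent inhibition (4-parameter Hill) derived from fluorescence, Ex 525/Em 598 nm, scaled with Acetyl-MSTI and MSTI; 1 h incubation at room temperature.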

HaCat = test: Cytotoxic Profiling of Annotated Libraries Using Quantitative High-Throughput Screening (AID 1296008); settings: Five cell lines viability, CellTiter-Glo ATP luminescence, 48-72 h; also: potency is read from the fitted curve at half-maximal effect; nearly all actives have a fitted effect of over 60% in size
Method in brief: (§1)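 Compounds were pin-transferred onto cells and incubated 48 or 72 hr at 37 degree Celsius, 95% humidity. CellTiter-Glo was added, plates sat 10 min at room temperature, then ATP-coupled luminescence was imaged as the viability read-out.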

PA-1 = test: Primary qHTS to identify gynecologic anti-cancer compounds using libraries of approved drugs and bioactive compounds (AID 1345084); settings: Gynecologic cancer cell panel viability, ATPlite luminescence, 48 h; also: potency is read from the fitted curve at half-maximal effect; nearly all actives have a fitted effect of over 55% in size
Method in brief: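 Cytotoxicity screen measuring ATP content by luciferase luminescence. Each compound is applied at five concentrations for 48 h at 37 C with 5% CO2.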

[8] = qHTS Assay for Identification of Small Molecule Agonists for Hypoxia Response Element Signaling Pathway (AID 914; active = well fitted activation curve with a large enough effect in the signal ratio, with a control signal flat, not every such curve was filed as active; inconclusive = small, poorly fitted or top-dose-only effect, or effect the other way, or a change in a side signal; the % refers to the signal ratio; also: % of control where 0% means no effect); settings: ME-180 (cervical carcinoma) HRE-bla reporter, beta-lactamase ratio, CoCl2, 17 h; activation: stronger effect = higher value
[9] = Cell Viability - LYMP2-005 (AID 967); settings: LYMP2-005 lymphoblastoid cell viability; at 92.2 µM (top of the series);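 also: plate controls were DMSO only for no effect and 92 µM tetraoctylammonium bromide control for full effect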
Method in brief: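 CellTiter-Glo luminescence (cellular ATP) read-out; LYMP2-005 lymphoblastoid cells, 2500/well, 5 h pre-incubation, then 24 h compound exposure at 37 C in complete medium. Tetraoctylammonium bromide positive control; AC50 by standard Hill fit.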

[10] = target: Androgen receptor (Homo sapiens) (UniProt P10275); test: qHTS assay for small molecule agonists of androgen receptor signaling (AID 588515; active = well fitted curve in the direction sought with a large enough effect in the signal ratio, with a control signal flat; inconclusive = small, poorly fitted or top-dose-only effect, or effect the other way, or a change in a side signal; inactive = no such curve, though single readings can be large or run the other way; the % refers to the signal ratio; also: % is scaled to controls: 0 for no effect and ±100 for the full control effect); settings: AR-UAS-bla HEK293, beta-lactamase ratio, agonist 16 h; stronger effect = higher value
[11] = qHTS assay to identify small molecules that stimulate interleukin-8 (IL-8) secretion (AID 651758; active = well fitted activation curve with a large enough effect in the signal ratio; inconclusive = small, poorly fitted or top-dose-only effect, or effect the other way, or a change in a side signal; the % refers to the signal ratio; also: 0% is about no effect); settings: HTRF ratio (665/615); activation: at 92.2 µM (top of the series)
Method in brief: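 Quantitative HTS in THP-1 monocytic cells at 2000 cells per well, with 16 hrs compound incubation at 37 C. IL-8 in the medium was then quantified by HTRF immunoassay, read after 1-3 hrs at room temperature.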

[12] = Primary qHTS for inhibitors of SARS-S pseudo-typed particle cell entry (AID 1479145; calls by dose curve; also: potency is read from the fitted curve at half-maximal effect; nearly all actives have a fitted effect of over 45% in size); settings: SARS-S pseudotyped particle cell entry, luciferase reporter
[13] = Primary qHTS for small molecule stabilizers of the endoplasmic reticulum resident proteome: Secreted ER Calcium Modulated Protein (SERCaMP) assay (AID 1508630); settings: SH-SY5Y GLuc-SERCaMP secretion, thapsigargin, luminescence; also: potency is read from the fitted curve at half-maximal effect
Method in brief: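 The SH-SY5Y reporter protocol was run at 3 concentrations up to 38.3 uM (primary) or 11 concentrations (follow-up): 16 h compound, 100 nM thapsigargin for 4 h, then extracellular luciferase luminescence.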

[14] = Primary qHTS to identify inhibitors of SARS-CoV-2 cell entry (AID 1645846; calls by dose curve; also: potency is read from the fitted curve at half-maximal effect; nearly all actives have a fitted effect of over 45% in size); settings: SARS-CoV-2 pseudovirus cell entry assay, luminescence
Method in brief: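 Luminescence readout (Bright-Glo luciferase) 48 h after pseudoparticle addition. HEK293-ACE2 cells, 1500/well; compound pre-incubation 1 h; Normalized to spike PP and bald PP.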

HEK293 = test: Cytotoxic Profiling of Annotated Libraries Using Quantitative High-Throughput Screening (AID 1296008); settings: Five cell lines viability, CellTiter-Glo ATP luminescence, 48-72 h; also: potency is read from the fitted curve at half-maximal effect; nearly all actives have a fitted effect of over 60% in size
Method in brief: as §1

O=[N+]([O-])[O-].[NH4+]
inconclusive: Potency [1] 53.1 µM | Potency [2] 3.16 µM

O=C(OC1CN2CCC1CC2)c1ccccc1 (stereo not drawn)
inconclusive: Potency [2] 15.8 µM | Potency (7G8) 20 µM

CC(C)N(CCCl)C(C)C
inconclusive: Potency [2] 35.5 µM

O=C(O[C@H]1CN2CCC1CC2)C1NCc2ccccc2[C@@H]1c1ccccc1 (stereo partly drawn)
inconclusive: Potency [3] 39.8 µM | Potency [4] 26.8 µM | Potency [5] 20.5 µM | Potency [6] 6.49 µM | Potency [7] 1.5 µM | Potency (HaCat) 29.1 µM | Potency (PA-1) 3.55 µM

NC(=O)Nc1ccc([As](=O)(O)O)cc1
inconclusive: activation [8] -8.62% | activity change, negative = viability loss [9] 38.1% | activation [10] 59.2% | activation [1] 9.02% | activation [11] -17.5% | Potency [12] 7.94 µM | Potency [13] 12.6 µM | Potency [14] 3.16 µM | Potency [5] 29.9 µM | Potency [6] 29.9 µM | Potency (HEK293) 5.31 µM
